These are yes or no findings as the source states them, for the method shown. Binding seen in cells or lysates may run through a third protein. A yes stands for co-enrichment or nearness to the bait. Other partners may have been found. For some assays here: A no says only that the protein was not detected with the bait.

Protein sequences, listed by entry. Tags and fused reporters are not part of them. Lines headed by an entry give the natural chain unless they say otherwise; changes in a name come on top. Residues count along the entry.
UniProt Q9BY78, whole entry: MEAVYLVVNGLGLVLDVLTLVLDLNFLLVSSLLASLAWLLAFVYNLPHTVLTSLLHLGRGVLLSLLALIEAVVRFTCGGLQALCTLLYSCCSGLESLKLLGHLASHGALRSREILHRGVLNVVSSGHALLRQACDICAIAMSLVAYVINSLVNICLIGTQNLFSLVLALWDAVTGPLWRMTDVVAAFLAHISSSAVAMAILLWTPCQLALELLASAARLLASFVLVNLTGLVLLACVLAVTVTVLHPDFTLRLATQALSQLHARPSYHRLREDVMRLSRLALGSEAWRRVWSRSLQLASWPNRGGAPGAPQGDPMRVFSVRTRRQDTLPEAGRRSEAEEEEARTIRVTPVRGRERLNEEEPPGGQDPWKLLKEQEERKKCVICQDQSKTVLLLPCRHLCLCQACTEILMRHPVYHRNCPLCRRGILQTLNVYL
UniProt Q9BY78, 1-422, stated change not applied: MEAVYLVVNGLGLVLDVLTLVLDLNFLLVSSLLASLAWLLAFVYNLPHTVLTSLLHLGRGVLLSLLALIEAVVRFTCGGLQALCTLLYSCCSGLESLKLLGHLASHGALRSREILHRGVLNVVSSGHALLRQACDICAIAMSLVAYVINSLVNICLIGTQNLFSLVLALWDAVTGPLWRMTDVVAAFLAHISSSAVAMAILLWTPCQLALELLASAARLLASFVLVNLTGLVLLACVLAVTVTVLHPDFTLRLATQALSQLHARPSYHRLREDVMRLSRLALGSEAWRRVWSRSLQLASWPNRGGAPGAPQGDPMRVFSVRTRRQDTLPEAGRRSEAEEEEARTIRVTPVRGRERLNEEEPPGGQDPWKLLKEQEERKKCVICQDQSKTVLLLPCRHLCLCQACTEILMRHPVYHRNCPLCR

Test in all cases: proximity labelling
The target of assay [1] is 2HA-TurboID-RNF26 IR/Δ423-432 (UniProt Q9BY78).
Another assay has as its target 2HA-TurboID-RNF26 I382R (UniProt Q9BY78).
Assay [2] concerns the target 2HA-TurboID-RNF26 WT/Δ423-432 (UniProt Q9BY78).
Assay [3] deals with 2HA-TurboID-RNF26 wild-type (UniProt Q9BY78).
The next assay addresses 2HA-TurboID-RNF26 Y432A (UniProt Q9BY78).

Turning to Vimentin (from UniProt P08670 1-466), the binding entry is listed as “no binding” in assay [1]; “binds” with 2HA-TurboID-RNF26 I382R; “no binding” in assay [2]; “binds” in assay [3]; “binds” with 2HA-TurboID-RNF26 Y432A.
